This is an account of results in doi:10.1101/2021.07.08.451586.

Protein sequences, listed by entry. Tags and fused reporters are not part of them.
UniProt Q15172, whole entry: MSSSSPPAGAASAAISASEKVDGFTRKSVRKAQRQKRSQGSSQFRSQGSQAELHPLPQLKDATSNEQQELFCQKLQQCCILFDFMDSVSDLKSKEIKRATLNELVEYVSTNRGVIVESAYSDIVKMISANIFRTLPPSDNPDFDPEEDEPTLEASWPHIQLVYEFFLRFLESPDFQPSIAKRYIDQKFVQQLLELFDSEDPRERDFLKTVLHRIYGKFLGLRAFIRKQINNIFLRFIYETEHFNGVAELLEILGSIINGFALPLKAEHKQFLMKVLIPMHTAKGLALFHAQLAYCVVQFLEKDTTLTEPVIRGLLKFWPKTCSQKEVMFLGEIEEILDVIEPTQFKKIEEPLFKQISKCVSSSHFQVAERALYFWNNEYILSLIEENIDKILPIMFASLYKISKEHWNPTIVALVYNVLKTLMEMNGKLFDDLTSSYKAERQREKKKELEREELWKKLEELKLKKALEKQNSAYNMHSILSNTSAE
UniProt P30153, whole entry: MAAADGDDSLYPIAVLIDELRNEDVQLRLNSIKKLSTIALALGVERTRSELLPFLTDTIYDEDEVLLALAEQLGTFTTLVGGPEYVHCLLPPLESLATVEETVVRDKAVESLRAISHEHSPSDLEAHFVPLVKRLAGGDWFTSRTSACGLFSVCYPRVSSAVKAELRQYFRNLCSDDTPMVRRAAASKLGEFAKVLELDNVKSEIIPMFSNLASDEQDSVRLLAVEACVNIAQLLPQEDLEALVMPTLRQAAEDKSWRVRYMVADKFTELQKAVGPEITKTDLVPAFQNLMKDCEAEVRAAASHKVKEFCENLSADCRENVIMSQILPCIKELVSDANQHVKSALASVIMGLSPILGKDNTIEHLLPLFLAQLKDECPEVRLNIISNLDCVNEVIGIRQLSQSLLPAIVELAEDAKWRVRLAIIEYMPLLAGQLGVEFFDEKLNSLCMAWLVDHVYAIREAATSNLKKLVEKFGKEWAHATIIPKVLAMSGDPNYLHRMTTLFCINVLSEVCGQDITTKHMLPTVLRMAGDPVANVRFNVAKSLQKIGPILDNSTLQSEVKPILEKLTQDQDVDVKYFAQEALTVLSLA

This experiment deals with Strep-B56α (UniProt Q15172). As to the kind of experiment: pull-down + SEC.

These are yes or no findings as the source states them, for the method shown. In cells and extracts the contact can be indirect. Some entries that bind do so weakly or less than the wild type.

Consider MBP-PPP2R1A (from UniProt P30153 1-589), for which the binding entry is recorded as “binds”.
